Some of the results follow. Hit calls seldom repeat between salt and free forms of one compound.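 In K562 cells expressing nanoluciferase-fused kinases, luminescence was recorded at 4 h intervals between 2 and 18 h, normalized as percent of control with DMSO at 100% and a positive control at 0%. A significant (2 sigma) signal drop marks a time point as decreased. The authors' rule for a hit is not shown and takes in more than the number of time points.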
Assays:
Assay in all cases: number of time points (of 5) at which kinase-Nluc abundance scored as decreased, DMSO-normalised (count); higher = more persistent destabilization
[1] = compound: COc1cc2c(-c3cnn4cc(N5CCC(N6CCN(C)CC6)CC5)cnc34)ccnc2cc1F; settings: 10 µM; K562; 2-18 h
Cediranib (maleate) = compound: COc1cc2c(Oc3ccc4[nH]c(C)cc4c3F)ncnc2cc1OCCCN1CCCC1 [Cediranib (maleate)]; settings: 2.5 µM; K562; 2-18 h
Cediranib = compound: COc1cc2c(Oc3ccc4[nH]c(C)cc4c3F)ncnc2cc1OCCCN1CCCC1 [Cediranib]; settings: 2.5 µM; K562; 2-18 h
[2] = compound: COc1cc2c(cc1OC)-c1c(C)c3ccc(OC)c(OC)c3c[n+]1CC2 [Dehydrocorydaline (chloride)]; settings: 10 µM; K562; 2-18 h
Dehydrocorydaline = compound: COc1cc2c(cc1OC)-c1c(C)c3ccc(OC)c(OC)c3c[n+]1CC2 [Dehydrocorydaline]; settings: 10 µM; K562; 2-18 h
[3] = compound: COc1cc2nccc(Nc3cc(OC)c(OC)c(OC)c3)c2cc1OC [GAK inhibitor 49 (hydrochloride)]; settings: 10 µM; K562; 2-18 h
GAK inhibitor 49 = compound: COc1cc2nccc(Nc3cc(OC)c(OC)c(OC)c3)c2cc1OC [GAK inhibitor 49]; settings: 10 µM; K562; 2-18 h
Cabozantinib (S-malate) = compound: COc1cc2nccc(Oc3ccc(NC(=O)C4(C(=O)Nc5ccc(F)cc5)CC4)cc3)c2cc1OC [Cabozantinib (S-malate)]; settings: 10 µM; K562; 2-18 h
Cabozantinib = compound: COc1cc2nccc(Oc3ccc(NC(=O)C4(C(=O)Nc5ccc(F)cc5)CC4)cc3)c2cc1OC [Cabozantinib]; settings: 2.5 µM; K562; 2-18 h
KN-93 (hydrochloride) = compound: COc1ccc(S(=O)(=O)N(CCO)c2ccccc2CN(C)C/C=C/c2ccc(Cl)cc2)cc1 [KN-93 (hydrochloride)]; settings: 2.5 µM; K562; 2-18 h
KN-93 (phosphate) = compound: COc1ccc(S(=O)(=O)N(CCO)c2ccccc2CN(C)C/C=C/c2ccc(Cl)cc2)cc1 [KN-93 (phosphate)]; settings: 2.5 µM; K562; 2-18 h
KN-92 (hydrochloride) = compound: COc1ccc(S(=O)(=O)Nc2ccccc2CN(C)C/C=C/c2ccc(Cl)cc2)cc1 [KN-92 (hydrochloride)]; settings: 2.5 µM; K562; 2-18 h
KN-92 (phosphate) = compound: COc1ccc(S(=O)(=O)Nc2ccccc2CN(C)C/C=C/c2ccc(Cl)cc2)cc1 [KN-92 (phosphate)]; settings: 2.5 µM; K562; 2-18 h
AX-024 hydrochloride = compound: COc1ccc2c(c1)C(c1ccc(F)cc1)=C(CN1CCCC1)CO2 [AX-024 hydrochloride]; settings: 10 µM; K562; 2-18 h
[4] = compound: COc1ccc2c(c1)C(c1ccc(F)cc1)=C(CN1CCCC1)CO2; settings: 10 µM; K562; 2-18 h
Ilaprazole (sodium) = compound: COc1ccnc(C[S+]([O-])c2nc3cc(-n4cccc4)ccc3[nH]2)c1C [Ilaprazole (sodium)]; settings: 10 µM; K562; 2-18 h
Ilaprazole = compound: COc1ccnc(C[S+]([O-])c2nc3cc(-n4cccc4)ccc3[nH]2)c1C [Ilaprazole]; settings: 10 µM; K562; 2-18 h
PLX5622 (hemifumarate) = compound: COc1ncc(F)cc1CNc1ccc(Cc2c[nH]c3ncc(C)cc23)c(F)n1 [PLX5622 (hemifumarate)]; settings: 10 µM; K562; 2-18 h
[5] = compound: COc1ncc(F)cc1CNc1ccc(Cc2c[nH]c3ncc(C)cc23)c(F)n1; settings: 10 µM; K562; 2-18 h
[6] = compound: CS(=O)(=O)N1CCN(Cc2cc3nc(-c4cccc5[nH]ncc45)nc(N4CCOCC4)c3s2)CC1 [Pictilisib (dimethanesulfonate)]; settings: 10 µM; K562; 2-18 h

Protein sequences, listed by entry. Tags and fused reporters are not part of them. Lines headed by an entry give the natural chain unless they say otherwise; changes in a name come on top.
UniProt Q6PHR2: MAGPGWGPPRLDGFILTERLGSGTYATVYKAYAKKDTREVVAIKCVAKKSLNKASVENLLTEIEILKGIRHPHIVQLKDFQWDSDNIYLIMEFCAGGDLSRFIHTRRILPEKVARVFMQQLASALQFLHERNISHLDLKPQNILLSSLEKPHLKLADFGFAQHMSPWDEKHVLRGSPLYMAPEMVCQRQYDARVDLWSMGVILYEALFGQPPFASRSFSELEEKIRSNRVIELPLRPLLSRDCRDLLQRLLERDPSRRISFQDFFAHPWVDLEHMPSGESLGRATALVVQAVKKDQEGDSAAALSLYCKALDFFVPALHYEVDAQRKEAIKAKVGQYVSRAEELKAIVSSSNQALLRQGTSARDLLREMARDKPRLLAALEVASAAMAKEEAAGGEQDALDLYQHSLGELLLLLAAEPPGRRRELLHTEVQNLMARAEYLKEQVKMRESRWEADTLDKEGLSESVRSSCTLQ
UniProt Q9UQM7, whole entry: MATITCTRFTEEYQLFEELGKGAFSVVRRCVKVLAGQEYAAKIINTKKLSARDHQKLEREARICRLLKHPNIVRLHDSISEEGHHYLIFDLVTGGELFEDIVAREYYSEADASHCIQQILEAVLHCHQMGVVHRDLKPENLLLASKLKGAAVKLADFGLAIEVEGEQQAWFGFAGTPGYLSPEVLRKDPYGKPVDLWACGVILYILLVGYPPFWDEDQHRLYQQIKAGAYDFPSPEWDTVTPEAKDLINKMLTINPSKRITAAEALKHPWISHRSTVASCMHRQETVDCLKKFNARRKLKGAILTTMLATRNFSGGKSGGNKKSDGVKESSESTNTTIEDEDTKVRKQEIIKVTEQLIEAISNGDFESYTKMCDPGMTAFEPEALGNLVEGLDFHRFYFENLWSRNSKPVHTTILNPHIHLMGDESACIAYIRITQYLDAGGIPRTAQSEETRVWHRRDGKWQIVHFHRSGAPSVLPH
UniProt Q96KB5: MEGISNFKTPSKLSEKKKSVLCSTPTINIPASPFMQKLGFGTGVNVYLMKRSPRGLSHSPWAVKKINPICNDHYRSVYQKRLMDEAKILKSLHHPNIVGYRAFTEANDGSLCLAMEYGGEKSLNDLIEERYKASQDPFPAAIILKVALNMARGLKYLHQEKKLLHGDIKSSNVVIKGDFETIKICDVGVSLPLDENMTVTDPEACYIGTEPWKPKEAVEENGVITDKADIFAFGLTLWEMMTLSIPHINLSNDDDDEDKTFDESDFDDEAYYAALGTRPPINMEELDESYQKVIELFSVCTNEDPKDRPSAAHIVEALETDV
UniProt P41240: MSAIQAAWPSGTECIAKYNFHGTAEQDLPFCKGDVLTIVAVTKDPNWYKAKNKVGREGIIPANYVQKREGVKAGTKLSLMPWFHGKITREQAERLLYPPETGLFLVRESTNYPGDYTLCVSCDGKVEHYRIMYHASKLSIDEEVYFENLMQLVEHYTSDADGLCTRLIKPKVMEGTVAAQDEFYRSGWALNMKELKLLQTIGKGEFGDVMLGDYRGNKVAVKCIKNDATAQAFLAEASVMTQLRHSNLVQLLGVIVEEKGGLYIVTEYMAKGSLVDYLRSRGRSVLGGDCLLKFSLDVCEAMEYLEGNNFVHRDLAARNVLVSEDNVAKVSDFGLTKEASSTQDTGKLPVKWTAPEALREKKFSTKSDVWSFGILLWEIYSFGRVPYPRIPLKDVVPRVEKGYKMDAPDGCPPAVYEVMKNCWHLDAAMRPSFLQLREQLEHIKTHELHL
UniProt P51451: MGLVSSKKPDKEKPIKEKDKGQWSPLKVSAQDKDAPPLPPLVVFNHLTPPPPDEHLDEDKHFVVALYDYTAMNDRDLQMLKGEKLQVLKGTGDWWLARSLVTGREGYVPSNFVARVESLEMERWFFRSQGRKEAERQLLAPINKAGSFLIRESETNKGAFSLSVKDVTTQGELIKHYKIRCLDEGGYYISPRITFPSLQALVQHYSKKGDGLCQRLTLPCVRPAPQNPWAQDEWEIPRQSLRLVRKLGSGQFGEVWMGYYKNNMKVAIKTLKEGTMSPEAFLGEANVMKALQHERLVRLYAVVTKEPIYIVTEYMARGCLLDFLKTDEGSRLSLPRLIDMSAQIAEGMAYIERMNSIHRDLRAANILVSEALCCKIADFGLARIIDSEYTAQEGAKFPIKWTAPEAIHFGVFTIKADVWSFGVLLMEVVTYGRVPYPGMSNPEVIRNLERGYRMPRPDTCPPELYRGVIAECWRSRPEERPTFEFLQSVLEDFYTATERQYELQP
UniProt P10398: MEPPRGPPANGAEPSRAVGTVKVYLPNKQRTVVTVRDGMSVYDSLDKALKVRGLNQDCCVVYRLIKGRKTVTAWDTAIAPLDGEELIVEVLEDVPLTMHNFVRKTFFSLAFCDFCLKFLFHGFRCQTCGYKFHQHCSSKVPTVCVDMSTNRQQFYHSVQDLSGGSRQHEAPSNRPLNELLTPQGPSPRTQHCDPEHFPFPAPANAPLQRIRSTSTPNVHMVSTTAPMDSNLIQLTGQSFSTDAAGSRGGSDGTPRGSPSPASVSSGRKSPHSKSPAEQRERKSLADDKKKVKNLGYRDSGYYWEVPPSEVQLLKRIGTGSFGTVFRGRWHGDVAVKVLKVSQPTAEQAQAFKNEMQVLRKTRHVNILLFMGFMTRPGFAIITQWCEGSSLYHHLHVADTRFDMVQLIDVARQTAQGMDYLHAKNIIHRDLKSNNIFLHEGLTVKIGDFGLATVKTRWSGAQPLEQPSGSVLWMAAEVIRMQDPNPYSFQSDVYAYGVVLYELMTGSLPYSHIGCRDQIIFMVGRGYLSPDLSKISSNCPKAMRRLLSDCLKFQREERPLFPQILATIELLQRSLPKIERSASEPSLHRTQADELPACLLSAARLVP
UniProt P21860, whole entry: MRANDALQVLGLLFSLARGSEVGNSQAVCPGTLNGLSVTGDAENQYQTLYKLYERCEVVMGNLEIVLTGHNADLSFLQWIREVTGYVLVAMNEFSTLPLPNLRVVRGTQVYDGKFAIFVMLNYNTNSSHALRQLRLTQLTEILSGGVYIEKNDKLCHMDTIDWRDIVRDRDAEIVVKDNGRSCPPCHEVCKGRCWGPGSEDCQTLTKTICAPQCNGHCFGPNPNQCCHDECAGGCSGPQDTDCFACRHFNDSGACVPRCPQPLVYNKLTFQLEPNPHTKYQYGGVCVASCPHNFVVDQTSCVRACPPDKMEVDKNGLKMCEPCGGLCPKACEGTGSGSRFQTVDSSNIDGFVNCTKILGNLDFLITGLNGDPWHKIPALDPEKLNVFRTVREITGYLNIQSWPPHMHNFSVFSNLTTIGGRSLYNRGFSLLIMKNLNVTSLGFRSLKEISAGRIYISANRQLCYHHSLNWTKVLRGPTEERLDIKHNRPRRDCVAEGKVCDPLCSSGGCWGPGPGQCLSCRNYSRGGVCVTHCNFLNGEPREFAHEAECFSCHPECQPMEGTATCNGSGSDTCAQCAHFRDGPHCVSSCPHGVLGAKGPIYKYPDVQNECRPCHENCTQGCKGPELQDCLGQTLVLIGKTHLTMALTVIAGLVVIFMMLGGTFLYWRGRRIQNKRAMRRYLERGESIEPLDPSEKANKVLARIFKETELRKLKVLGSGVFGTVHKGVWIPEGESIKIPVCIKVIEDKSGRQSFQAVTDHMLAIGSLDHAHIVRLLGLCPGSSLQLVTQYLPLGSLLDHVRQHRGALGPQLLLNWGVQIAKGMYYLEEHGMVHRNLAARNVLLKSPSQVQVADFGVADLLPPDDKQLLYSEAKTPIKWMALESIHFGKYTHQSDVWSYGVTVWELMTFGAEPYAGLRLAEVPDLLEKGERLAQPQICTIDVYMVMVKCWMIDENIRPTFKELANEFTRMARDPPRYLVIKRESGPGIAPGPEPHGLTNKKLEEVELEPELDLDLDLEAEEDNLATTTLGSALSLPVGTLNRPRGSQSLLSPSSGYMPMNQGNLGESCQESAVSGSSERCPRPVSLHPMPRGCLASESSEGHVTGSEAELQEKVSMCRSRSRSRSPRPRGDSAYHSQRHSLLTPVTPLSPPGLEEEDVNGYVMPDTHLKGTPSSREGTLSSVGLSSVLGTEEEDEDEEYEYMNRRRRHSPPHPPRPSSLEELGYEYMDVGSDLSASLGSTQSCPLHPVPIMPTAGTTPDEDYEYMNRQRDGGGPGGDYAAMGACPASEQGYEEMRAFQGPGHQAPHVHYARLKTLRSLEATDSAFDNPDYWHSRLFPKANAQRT
UniProt Q15208: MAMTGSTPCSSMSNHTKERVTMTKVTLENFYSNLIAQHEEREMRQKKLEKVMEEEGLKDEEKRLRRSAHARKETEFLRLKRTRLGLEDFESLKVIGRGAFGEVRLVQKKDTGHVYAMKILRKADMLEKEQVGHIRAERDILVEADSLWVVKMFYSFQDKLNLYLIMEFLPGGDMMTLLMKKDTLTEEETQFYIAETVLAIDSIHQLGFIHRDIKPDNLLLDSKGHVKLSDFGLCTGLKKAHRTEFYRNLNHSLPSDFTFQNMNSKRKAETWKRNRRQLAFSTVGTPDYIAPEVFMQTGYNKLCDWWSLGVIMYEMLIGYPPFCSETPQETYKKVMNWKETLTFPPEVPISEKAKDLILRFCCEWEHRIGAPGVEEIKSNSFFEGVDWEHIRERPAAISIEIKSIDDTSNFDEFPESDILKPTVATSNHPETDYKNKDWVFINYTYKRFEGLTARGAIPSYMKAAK
UniProt Q15418, whole entry: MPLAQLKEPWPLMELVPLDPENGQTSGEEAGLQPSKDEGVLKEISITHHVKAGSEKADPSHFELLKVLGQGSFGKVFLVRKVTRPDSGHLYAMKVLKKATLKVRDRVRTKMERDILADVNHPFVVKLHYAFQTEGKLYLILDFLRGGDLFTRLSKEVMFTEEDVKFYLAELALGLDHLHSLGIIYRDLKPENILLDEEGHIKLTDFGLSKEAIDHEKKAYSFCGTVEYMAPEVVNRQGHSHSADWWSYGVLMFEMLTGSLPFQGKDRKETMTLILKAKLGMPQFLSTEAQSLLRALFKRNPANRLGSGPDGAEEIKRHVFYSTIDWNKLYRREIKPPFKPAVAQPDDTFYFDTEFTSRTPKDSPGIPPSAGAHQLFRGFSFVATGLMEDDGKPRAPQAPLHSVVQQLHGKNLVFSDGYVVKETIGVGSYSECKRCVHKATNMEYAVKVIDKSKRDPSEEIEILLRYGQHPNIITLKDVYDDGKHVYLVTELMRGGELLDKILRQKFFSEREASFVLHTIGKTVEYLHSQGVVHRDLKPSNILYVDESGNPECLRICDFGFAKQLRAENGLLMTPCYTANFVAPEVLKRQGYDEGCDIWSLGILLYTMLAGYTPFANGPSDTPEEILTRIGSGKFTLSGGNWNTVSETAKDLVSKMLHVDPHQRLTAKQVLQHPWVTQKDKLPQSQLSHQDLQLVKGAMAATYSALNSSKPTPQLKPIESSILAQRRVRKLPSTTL
UniProt Q9NYA1, whole entry: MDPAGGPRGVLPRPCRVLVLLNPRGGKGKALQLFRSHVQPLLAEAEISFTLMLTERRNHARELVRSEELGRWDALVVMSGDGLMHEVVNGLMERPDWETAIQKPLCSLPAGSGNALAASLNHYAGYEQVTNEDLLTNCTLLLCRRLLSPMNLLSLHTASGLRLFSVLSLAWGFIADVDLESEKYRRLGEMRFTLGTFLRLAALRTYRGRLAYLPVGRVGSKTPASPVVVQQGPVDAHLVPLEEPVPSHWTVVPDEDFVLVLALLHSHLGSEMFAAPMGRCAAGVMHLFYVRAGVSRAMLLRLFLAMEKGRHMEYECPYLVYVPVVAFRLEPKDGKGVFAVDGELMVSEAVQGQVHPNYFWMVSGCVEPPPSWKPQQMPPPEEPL
UniProt P11362, whole entry, looked up: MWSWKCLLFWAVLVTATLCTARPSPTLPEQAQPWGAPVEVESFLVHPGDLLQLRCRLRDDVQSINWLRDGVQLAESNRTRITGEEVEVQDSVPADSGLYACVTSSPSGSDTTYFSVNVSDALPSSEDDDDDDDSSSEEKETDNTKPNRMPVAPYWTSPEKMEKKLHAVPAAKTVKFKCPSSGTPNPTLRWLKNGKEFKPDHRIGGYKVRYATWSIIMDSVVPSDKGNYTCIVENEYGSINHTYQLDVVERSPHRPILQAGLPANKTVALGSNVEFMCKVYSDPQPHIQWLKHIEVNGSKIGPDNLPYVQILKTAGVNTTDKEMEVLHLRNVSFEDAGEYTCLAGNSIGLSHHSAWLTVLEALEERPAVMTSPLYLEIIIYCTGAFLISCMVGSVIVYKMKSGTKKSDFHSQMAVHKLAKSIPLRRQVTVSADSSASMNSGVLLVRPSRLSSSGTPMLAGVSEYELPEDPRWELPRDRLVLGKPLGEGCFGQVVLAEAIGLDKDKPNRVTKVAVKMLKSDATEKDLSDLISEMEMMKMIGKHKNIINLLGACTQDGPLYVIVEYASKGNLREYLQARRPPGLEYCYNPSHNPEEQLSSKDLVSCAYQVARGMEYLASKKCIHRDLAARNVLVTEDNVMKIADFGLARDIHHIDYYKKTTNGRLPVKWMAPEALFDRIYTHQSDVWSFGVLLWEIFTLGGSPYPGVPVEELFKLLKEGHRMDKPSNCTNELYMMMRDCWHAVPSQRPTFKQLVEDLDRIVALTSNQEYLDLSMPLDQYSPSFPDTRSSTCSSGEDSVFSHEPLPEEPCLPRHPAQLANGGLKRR

| Target | number of time points [1] | number of time points (Cediranib (maleate)) | number of time points (Cediranib) | number of time points [2] | number of time points (Dehydrocorydaline) | number of time points [3] | number of time points (GAK inhibitor 49) | number of time points (Cabozantinib (S-malate)) | number of time points (Cabozantinib) | number of time points (KN-93 (hydrochloride)) | number of time points (KN-93 (phosphate)) | number of time points (KN-92 (hydrochloride)) | number of time points (KN-92 (phosphate)) | number of time points (AX-024 hydrochloride) | number of time points [4] | number of time points (Ilaprazole (sodium)) | number of time points (Ilaprazole) | number of time points (PLX5622 (hemifumarate)) | number of time points [5] | number of time points [6] |
| --- | --- | --- | --- | --- | --- | --- | --- | --- | --- | --- | --- | --- | --- | --- | --- | --- | --- | --- | --- | --- |
| ULK3 (UniProt Q6PHR2) | 0 | 0 | 0 | 0 | 0 | 3 | 2 | 5 | 3 | 0 | 0 | 0 | 0 | 0 | 0 | 0 | 0 | 0 | 0 | 0 |
| RAF1_S257L (clone: RAF1_mut) (UniProt P04049) | 0 | 0 | 0 | 0 | 0 | 0 | 3 | 4 | 0 | 0 | 0 | 0 | 0 | 0 | 0 | 0 | 0 | 0 | 0 | 0 |
| CAMK2A (UniProt Q9UQM7) | 0 | 0 | 0 | 0 | 0 | 0 | 0 | 0 | 0 | 0 | 0 | 0 | 0 | 0 | 0 | 0 | 0 | 0 | 0 | 0 |
| BRAF_V600E | 0 | 0 | 0 | 0 | 0 | 1 | 1 | 4 | 2 | 0 | 0 | 0 | 0 | 0 | 0 | 0 | 0 | 0 | 0 | 0 |
| BTK (UniProt Q06187) | 0 | 0 | 0 | 0 | 0 | 0 | 0 | 1 | 0 | 0 | 0 | 0 | 0 | 0 | 0 | 0 | 0 | 0 | 0 | 0 |
| PBK (UniProt Q96KB5) | 0 | 0 | 0 | 0 | 0 | 0 | 0 | 0 | 0 | 0 | 0 | 0 | 0 | 0 | 0 | 0 | 0 | 0 | 0 | 0 |
| PRKCA (UniProt P17252) | 0 | 0 | 0 | 0 | 0 | 0 | 0 | 0 | 0 | 0 | 0 | 0 | 0 | 0 | 0 | 0 | 0 | 0 | 0 | 0 |
| FGFR2 (UniProt P21802) | 0 | 0 | 0 | 0 | 0 | 1 | 3 | 1 | 3 | 0 | 0 | 0 | 0 | 0 | 0 | 0 | 0 | 0 | 0 | 0 |
| CSK (UniProt P41240) | 0 | 0 | 0 | 0 | 0 | 0 | 0 | 0 | 0 | 0 | 0 | 0 | 0 | 0 | 0 | 0 | 0 | 0 | 0 | 0 |
| LMTK2 (UniProt Q8IWU2) | 0 | 0 | 0 | 0 | 0 | 0 | 0 | 2 | 0 | 0 | 0 | 0 | 0 | 0 | 0 | 0 | 0 | 0 | 0 | 0 |
| FYN (UniProt P06241) | 0 | 0 | 0 | 0 | 0 | 0 | 1 | 3 | 3 | 0 | 0 | 0 | 0 | 0 | 0 | 0 | 0 | 0 | 0 | 0 |
| EGFR_G719S (UniProt P00533) | 0 | 0 | 0 | 0 | 0 | 0 | 3 | 0 | 2 | 0 | 0 | 0 | 0 | 0 | 0 | 0 | 0 | 0 | 0 | 0 |
| PIK4CB (UniProt Q9UBF8) | 0 | 0 | 0 | 0 | 0 | 2 | 0 | 2 | 1 | 0 | 0 | 0 | 0 | 0 | 0 | 0 | 0 | 0 | 0 | 0 |
| EGFR (UniProt P00533) | 0 | 0 | 0 | 0 | 0 | 0 | 0 | 2 | 0 | 0 | 0 | 0 | 0 | 0 | 0 | 0 | 0 | 0 | 0 | 0 |
| BLK (UniProt P51451) | 0 | 0 | 0 | 0 | 0 | 0 | 2 | 0 | 0 | 0 | 0 | 0 | 0 | 0 | 0 | 0 | 0 | 0 | 0 | 0 |
| ARAF (UniProt P10398) | 0 | 0 | 0 | 0 | 0 | 0 | 0 | 1 | 0 | 0 | 0 | 0 | 0 | 0 | 0 | 0 | 0 | 0 | 0 | 0 |
| LYN (UniProt P07948) | 0 | 0 | 0 | 0 | 0 | 0 | 0 | 0 | 0 | 0 | 0 | 0 | 0 | 0 | 0 | 0 | 0 | 0 | 0 | 0 |
| RET (UniProt P07949) | 0 | 0 | 0 | 0 | 0 | 0 | 0 | 1 | 2 | 0 | 0 | 0 | 0 | 0 | 0 | 0 | 0 | 0 | 0 | 0 |
| CAMK2G (UniProt Q13555) | 0 | 0 | 0 | 0 | 0 | 0 | 0 | 0 | 0 | 0 | 0 | 0 | 0 | 0 | 0 | 0 | 0 | 0 | 0 | 0 |
| ERBB3 (UniProt P21860) | 0 | 0 | 0 | 0 | 0 | 0 | 2 | 3 | 3 | 0 | 0 | 0 | 0 | 0 | 0 | 0 | 0 | 0 | 0 | 0 |
| MAPK1 (UniProt P28482) | 0 | 0 | 0 | 0 | 0 | 0 | 0 | 0 | 0 | 0 | 0 | 0 | 0 | 0 | 0 | 0 | 0 | 0 | 0 | 0 |
| CDK2 (UniProt P24941) | 0 | 0 | 0 | 0 | 0 | 0 | 0 | 0 | 0 | 0 | 0 | 0 | 0 | 0 | 0 | 0 | 0 | 0 | 0 | 0 |
| STK38 (UniProt Q15208) | 0 | 0 | 0 | 0 | 0 | 1 | 0 | 1 | 1 | 0 | 0 | 0 | 0 | 0 | 0 | 0 | 0 | 0 | 0 | 0 |
| RPS6KA1 (UniProt Q15418) | 0 | 0 | 0 | 0 | 0 | 0 | 0 | 0 | 0 | 0 | 0 | 0 | 0 | 0 | 0 | 0 | 0 | 0 | 0 | 0 |
| SPHK1 (UniProt Q9NYA1) | 0 | 0 | 0 | 0 | 0 | 0 | 0 | 1 | 0 | 0 | 0 | 0 | 0 | 0 | 0 | 0 | 0 | 0 | 0 | 0 |
| MAP2K1 (UniProt Q02750) | 0 | 0 | 0 | 0 | 0 | 0 | 0 | 0 | 0 | 0 | 0 | 0 | 0 | 0 | 0 | 0 | 0 | 0 | 0 | 0 |
| SRC (UniProt P12931) | 0 | 0 | 0 | 0 | 0 | 0 | 0 | 0 | 0 | 0 | 0 | 0 | 0 | 0 | 0 | 0 | 0 | 0 | 0 | 0 |
| FGFR1 (UniProt P11362) | 0 | 0 | 0 | 0 | 0 | 0 | 2 | 4 | 1 | 0 | 0 | 0 | 0 | 0 | 0 | 0 | 0 | 0 | 0 | 0 |

Look-ups from above.
PIK4CB (UniProt Q9UBF8) – number of time points (Cabozantinib): 1
FGFR1 (UniProt P11362) – number of time points [6]: 0

From the supplement of paper PMC12823440, “Inhibitors supercharge kinase turnover through native proteolytic circuits” (Nature, 2025)
